Measurements reported in PubChem BioAssay AID1259308 (NCATS, 2017).

- Aim: 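Knock-downs that increase output of a recombinant reporter protein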 (primary screen)
- Cells: human HEK293 embryonic kidney cells stably expressing firefly luciferase (HEK-CMV-Luc2-Hygro)
- Knock-down reagent: single siRNA against human genes, 0.8 pmol siRNA per well
- Time to read-out: 72 h
- Measured: 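Luciferase light (ONE-Glo) measured on one replicate plate set and viability (CellTiter-Glo) on the other, scaled to a negative control siRNA, with robust z-scores and luciferase per cell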
- Reading the numbers: total luciferase, z-score and total luciferase, % of control: higher = more reporter protein produced; luciferase per cell, z-score: higher = more reporter output per viable cell; viable cells, % of control: higher = more viable cells
- Hit rule: 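Active when the median/MAD z-score for overall luciferase is greater than 3; a gene was taken forward for validation with new siRNAs if at least two of its three siRNAs passed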
- Meaning of the calls: active = raised luciferase; inactive = no rise
Shown is an unselected part of about 59,000 reagents tested. Over the whole deposit, about 1,510 (2.6%) are marked active. 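Calls use total luciferase alone and ignore viability, so some active siRNAs may act by altering cell number.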 Unmarked entries are inactive. The numbers tell different reagents against one gene apart.

Gene | siRNA no. | total luciferase, z-score | total luciferase, % of control | luciferase per cell, z-score | viable cells, % of control
HLA-G (GeneID 3135) | 1 | 3.5 (active) | 152 | 2.39 | 90.2
HLA-G (GeneID 3135) | 2 | -0.354 | 74.8 | -0.142 | 86.8
HLA-G (GeneID 3135) | 3 | -2.62 | 29.7 | -3.72 | 88.3
ZBTB7B (GeneID 51043) | 1 | 0.787 | 97.5 | 1.06 | 82.4
ZBTB7B (GeneID 51043) | 2 | -1.24 | 57.2 | -1.31 | 90.2
ZBTB7B (GeneID 51043) | 3 | -0.00383 | 81.8 | -0.249 | 97.6
PCDHGA12 (GeneID 26025) | 1 | -0.77 | 66.6 | -0.45 | 83.7
PCDHGA12 (GeneID 26025) | 2 | -0.686 | 68.2 | -0.835 | 95
PCDHGA12 (GeneID 26025) | 3 | 0.975 | 101 | 0.422 | 101
DEFB107A (GeneID 245910) | 1 | 0.818 | 98.2 | 2.66 | 54.4
DEFB107A (GeneID 245910) | 2 | -0.345 | 75 | 0.402 | 75.4
DEFB107A (GeneID 245910) | 3 | 0.0401 | 82.7 | 0.342 | 84.4
ZSCAN9 (GeneID 7746) | 1 | -0.803 | 65.9 | -0.648 | 87.4
ZSCAN9 (GeneID 7746) | 2 | -0.688 | 68.2 | -0.97 | 98.4
ZSCAN9 (GeneID 7746) | 3 | -1.54 | 51.3 | -1.68 | 89.2
IDO1 (GeneID 3620) | 1 | 1.02 | 102 | 0.512 | 99.8
IDO1 (GeneID 3620) | 2 | -1.14 | 59.3 | 0.604 | 56.5
IDO1 (GeneID 3620) | 3 | 0.0105 | 82.1 | -0.115 | 94.5
HAS1 (GeneID 3036) | 1 | 2.4 | 130 | 2.72 | 70.7
HAS1 (GeneID 3036) | 2 | -0.144 | 79 | -0.0711 | 90
HAS1 (GeneID 3036) | 3 | 0.133 | 84.5 | 1.07 | 71.3
PCDHGB2 (GeneID 56103) | 1 | 0.131 | 84.5 | 0.136 | 91.1
PCDHGB2 (GeneID 56103) | 2 | -0.505 | 71.8 | -0.451 | 90.4
PCDHGB2 (GeneID 56103) | 3 | -0.639 | 69.2 | -0.608 | 90.7
DKK2 (GeneID 27123) | 1 | -0.912 | 63.8 | -0.0491 | 72.2
DKK2 (GeneID 27123) | 2 | 1.23 | 106 | 0.448 | 106
DKK2 (GeneID 27123) | 3 | 0.997 | 102 | 0.989 | 87.6
DSE (GeneID 29940) | 1 | 3.37 (active) | 149 | 2.11 | 95.4
DSE (GeneID 29940) | 2 | 0.128 | 84.4 | -0.156 | 98.3
DSE (GeneID 29940) | 3 | -1.36 | 54.9 | -0.644 | 72.7
SERPINA13P (GeneID 388007) | 1 | 2.02 | 122 | 1.56 | 90.4
SERPINA13P (GeneID 388007) | 2 | -0.725 | 67.5 | -1.21 | 104
SERPINA13P (GeneID 388007) | 3 | -2.69 | 28.5 | -3.67 | 83.6
GAPDH (GeneID 2597) | 1 | -0.15 | 78.9 | 1.13 | 65.5
GAPDH (GeneID 2597) | 2 | 0.301 | 87.9 | -0.358 | 108
GAPDH (GeneID 2597) | 3 | -0.253 | 76.9 | -0.394 | 95.3
RNPEPL1 (GeneID 57140) | 1 | -0.518 | 71.6 | -0.991 | 104
RNPEPL1 (GeneID 57140) | 2 | 0.477 | 91.4 | 0.968 | 79.1
RNPEPL1 (GeneID 57140) | 3 | 1.19 | 106 | 0.98 | 91.1
LINC03122 (GeneID 285668) | 1 | -0.224 | 77.4 | -0.242 | 92.2
LINC03122 (GeneID 285668) | 2 | 0.145 | 84.8 | 0.0484 | 93.5
LINC03122 (GeneID 285668) | 3 | -0.323 | 75.5 | -0.614 | 99.1
LINC02551 (GeneID 100507431) | 1 | 0.407 | 90 | 1.19 | 73.4
LINC02551 (GeneID 100507431) | 2 | -0.937 | 63.2 | -0.635 | 83.5
LINC02551 (GeneID 100507431) | 3 | 1.49 | 111 | 0.103 | 121
PTPN1 (GeneID 5770) | 1 | 0.53 | 92.4 | 0.792 | 83.9
PTPN1 (GeneID 5770) | 2 | 0.52 | 92.2 | -0.26 | 110
PTPN1 (GeneID 5770) | 3 | 0.278 | 87.4 | -0.253 | 104
ILDR1 (GeneID 286676) | 1 | -0.364 | 74.6 | 0.278 | 77.5
ILDR1 (GeneID 286676) | 2 | -0.236 | 77.2 | -0.288 | 93.1
ILDR1 (GeneID 286676) | 3 | -0.685 | 68.3 | -0.365 | 84
FCHO1 (GeneID 23149) | 1 | 0.447 | 90.8 | -0.206 | 107
FCHO1 (GeneID 23149) | 2 | -0.621 | 69.5 | -1 | 101
FCHO1 (GeneID 23149) | 3 | 0.236 | 86.6 | 0.113 | 93.9
GLO1 (GeneID 2739) | 1 | -0.332 | 75.3 | -0.614 | 98.9
GLO1 (GeneID 2739) | 2 | -1.33 | 55.4 | -1.43 | 90.3
GLO1 (GeneID 2739) | 3 | 0.567 | 93.2 | 0.73 | 85.9

Records listed above with an active call (2):
Gene | siRNA no. | total luciferase, z-score | total luciferase, % of control | luciferase per cell, z-score | viable cells, % of control
HLA-G (GeneID 3135) | 1 | 3.5 (active) | 152 | 2.39 | 90.2
DSE (GeneID 29940) | 1 | 3.37 (active) | 149 | 2.11 | 95.4
